Experimental findings from patent EP2801619A1 (Fondazione Edmund Mach, dated 2014) are described below.

These are yes or no findings as the source states them, for the method shown. Some results given as binding are weak or reduced against the parent protein; the word gives no strength.

Test [1] addresses T1, CURVATURE THYLAKOID1C (CURT1C) of Arabidopsis thaliana, endogenous protein in thylakoid membranes (Arabidopsis thaliana) (UniProt Q9M812).
T1 sequence: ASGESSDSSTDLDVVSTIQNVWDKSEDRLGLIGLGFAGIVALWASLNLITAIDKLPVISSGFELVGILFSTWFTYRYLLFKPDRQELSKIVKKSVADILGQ
Kind of test: 2D-BN/SDS-PAGE of thylakoid multiprotein complexes (Fig. 5b).

The target in test [2] is T1, CURVATURE THYLAKOID1C (CURT1C) of Arabidopsis thaliana, endogenous protein in thylakoid membranes (Arabidopsis thaliana). Kind of test: 2D BN/SDS-PAGE of digitonin-solubilised thylakoid complexes, immunoblot (co-migration). A general note: Immunoblotting shows a protein as a band on a membrane.
The target in test [3] is T2, CURVATURE THYLAKOID1B (CURT1B) of Arabidopsis thaliana, endogenous protein in thylakoid membranes (Arabidopsis thaliana) (UniProt Q8LCA1).
T2 sequence: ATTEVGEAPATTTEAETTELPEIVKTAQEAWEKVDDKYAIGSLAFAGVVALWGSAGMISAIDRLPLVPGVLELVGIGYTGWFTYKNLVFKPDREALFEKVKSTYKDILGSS
Kind of test: chemical crosslinking (BS3) of thylakoid proteins, SDS-PAGE and immunoblot, WT against curt1 mutants.

For test [4], the target named is T2, CURVATURE THYLAKOID1B (CURT1B) of Arabidopsis thaliana, endogenous protein in thylakoid membranes (Arabidopsis thaliana). Kind of test: 2D-BN/SDS-PAGE of thylakoid multiprotein complexes (Fig. 5b).
Test [5] has the same target. Kind of test: 2D BN/SDS-PAGE of digitonin-solubilised thylakoid complexes, immunoblot (co-migration).
Test [6] has as its target CURT1A translated in an E. coli S12 cell-free system in the presence of liposomes (CURT1A proteoliposomes) (Arabidopsis thaliana) (UniProt O04616). Kind of test: crosslinking of CURT1A proteoliposomes with DSP or DTSSP, SDS-PAGE and Western analysis.
Test [7] shares this target. Kind of test: crosslinking of CURT1A proteoliposomes with DSP or DTSSP, SDS-PAGE and Western analysis (Fig. 17c).

B1: CURVATURE THYLAKOID1B (CURT1B) of Arabidopsis thaliana, endogenous protein in thylakoid membranes (protein)
chain: T2 sequence
Regarding B1, the binding entry in test [1], in test [2] and in test [3] was “binds” in each case.

B2: CURVATURE THYLAKOID1A (CURT1A) of Arabidopsis thaliana, endogenous protein in thylakoid membranes (other)
chain: ASSEETSSIDTNELITDLKEKWDGLENKSTVLIYGGGAIVAVWLSSIVVGAINSVPLLPKVMELVGLGYTGWFVYRYLLFKSSRKELAEDIESLKKKIAGSE
notes: Thylakoid membrane protein as found in plant thylakoids; also called At4g01150
For B2, the binding result in test [4], in test [5] and in test [3] was “binds” in each case.

B3: CURT1A translated in an E. coli S12 cell-free system in the presence of liposomes (CURT1A proteoliposomes) (protein)
chain: B2 chain
As for B3, the binding result in test [6] and in test [7] was “binds” in each case.
